According to patent US20200093922A1 (AGENCY FOR SCIENCE TECHNOLOGY AND RESEARCH, published 2020):
These are yes or no findings as the source states them, for the method shown. Some binding calls cover weakened binding; strength is not graded here.

Chains of the proteins cited; added tags and fusions are not shown. Lines headed by an entry give the natural chain unless they say otherwise; changes in a name come on top. A line that says so, or that is headed by a name, gives the form on record, which may keep a tag or linker. Residues count along the entry.
UniProt Q9NZQ7: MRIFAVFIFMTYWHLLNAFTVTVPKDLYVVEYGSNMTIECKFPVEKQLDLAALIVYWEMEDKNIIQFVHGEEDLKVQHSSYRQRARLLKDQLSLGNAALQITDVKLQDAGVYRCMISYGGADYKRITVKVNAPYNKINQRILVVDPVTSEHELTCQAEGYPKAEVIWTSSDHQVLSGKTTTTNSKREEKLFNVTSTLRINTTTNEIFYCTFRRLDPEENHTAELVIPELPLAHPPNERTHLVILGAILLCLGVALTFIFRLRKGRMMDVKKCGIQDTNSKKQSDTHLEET
human PD-L1 expressed on transfected HEK 293 cells: residues 19-290 of Q9NZQ7
UniProt Q9EP73: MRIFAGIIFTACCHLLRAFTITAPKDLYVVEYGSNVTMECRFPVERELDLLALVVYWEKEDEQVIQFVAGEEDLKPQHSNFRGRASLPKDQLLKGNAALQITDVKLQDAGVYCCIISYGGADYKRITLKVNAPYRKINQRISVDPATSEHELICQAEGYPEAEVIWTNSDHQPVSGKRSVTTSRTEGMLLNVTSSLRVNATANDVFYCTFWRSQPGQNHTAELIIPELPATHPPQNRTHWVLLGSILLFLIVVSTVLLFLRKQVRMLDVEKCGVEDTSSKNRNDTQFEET
cynomolgus PD-L1 (G7PSE7, form named): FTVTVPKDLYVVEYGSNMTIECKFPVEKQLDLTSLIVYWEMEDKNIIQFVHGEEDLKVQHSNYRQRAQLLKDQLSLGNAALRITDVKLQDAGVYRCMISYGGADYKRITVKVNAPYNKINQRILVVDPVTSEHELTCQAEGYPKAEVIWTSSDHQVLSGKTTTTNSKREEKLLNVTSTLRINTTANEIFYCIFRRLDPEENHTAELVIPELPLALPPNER

Legend:
biotinylated human PD-L1 [1] = target: T1, biotinylated human PD-L1 (human, UniProt Q9NZQ7 19-238, limits assumed, biotinylated (site not stated)); test: ELISA: antibody coated, biotinylated human PD-L1 titrated, streptavidin-HRP (FIG. 19A)
[2] = target: PD-L1 on MDA-MB-231 human breast cancer cells (human) (UniProt Q9NZQ7); test: flow cytometry on MDA-MB-231 cells expressing PD-L1, MFI against IgG1 (nM)
[3] = target: human PD-L1 expressed on transfected HEK 293 cells (human) (UniProt Q9NZQ7); test: flow cytometry blocking assay: antibody mixed with human PD-1-PE (blocked partner), added to HEK293 cells transfected with human PD-L1
[4] = target: biotinylated murine PD-L1 (murine, UniProt Q9EP73 19-238, limits assumed, biotinylated (site not stated)); test: blocking ELISA of murine PD-L1 binding to murine PD-1 (blocked partner), Example 3
[5] = target: PD-L1 on MDA-MB-231 human breast cancer cells (human) (UniProt Q9NZQ7); test: flow cytometry on MDA-MB-231 cells (FIG. 20)
biotinylated human PD-L1 [6] = target: T1, biotinylated human PD-L1; test: avidity ELISA: biotinylated human PD-L1 on neutravidin, antibody titrated, anti-human Fc-HRP (FIG. 19B)
[7] = target: mouse PD-L1 (ELISA antigen of Example 8, construct not stated) (mouse) (UniProt Q9EP73); test: ELISA on coated antigen (sheet label moPD-L1-Fc)
[8] = target: mouse PD-L1 (ELISA antigen of Example 8, construct not stated) (mouse) (UniProt Q9EP73); test: recap of earlier binding results in Example 11
biotinylated human PD-L1 [9] = target: T1, biotinylated human PD-L1; test: avidity ELISA: biotinylated human PD-L1 at 0.2 ug/mL on neutravidin, antibody titrated (x axis IgG, nM), anti-human Fc-HRP
Procedure: Neutravidin was coated onto maxisorp plates at 2 μg/mL in coating buffer and incubated overnight at 4° C. The next day, plates were washed with wash buffer (PBS+0.05% Tween-20), and blocker with casein for 1 hour, at room temperature. Plates were then washed again using wash buffer. […] Plates were then washed again using wash buffer. The different antibodies were then added at various concentrations, and incubated for 1 hour at room temperature. Plates were then washed again using wash buffer. Anti-human Fc-HRP was then added and incubated for 1 hour at room temperature. Plates were then washed again using wash buffer. Finally, TMB was added to develop the ELISA; TMB conversion by HRP was stopped using 1M H-Cl.

[10] = target: PD-L1 (blocking ELISA of Example 13) (Homo sapiens (Human)) (UniProt Q9NZQ7); test: blocking ELISA: antibody pre-incubated with PD-L1, added to coated PD-1 (blocked partner), PD-1-bound PD-L1 detected
[11] = target: cynomolgus PD-L1 (cynomolgus) (UniProt G7PSE7); test: ELISA on different antigens (FIG. 15)
[12] = target: human PD-L1 (ELISA antigen, construct not stated) (human) (UniProt Q9NZQ7); test: ELISA on different antigens (FIG. 15)
[13] = target: mouse PD-L1 (ELISA antigen of Example 8, construct not stated) (mouse) (UniProt Q9EP73); test: ELISA on different antigens (FIG. 15)
[14] = target: cynomolgus PD-L1 (cynomolgus) (UniProt G7PSE7); test: ELISA on coated antigen (sheet label cyPD-L1-Fc)
[15] = target: human PD-L1 (ELISA antigen, construct not stated) (human) (UniProt Q9NZQ7); test: ELISA on coated antigen (sheet label huPD-L1-Fc)
biotinylated human PD-L1 [16] = target: T1, biotinylated human PD-L1; test: ELISA: antibody coated at 2 ug/mL, biotinylated human PD-L1 titrated (x axis Human PD-L1, nM), streptavidin-HRP
Procedure: Binding was measured by ELISA. Antibodies were coated onto maxisorp plates at 2 μg/mL in coating buffer and incubated overnight at 4° C. The next day, plates were washed with wash buffer (PBS+0.05% Tween-20), and blocker with casein for 1 hour, at room temperature. Plates were then washed again using wash buffer. […] Plates were then washed again using wash buffer. […] Plates were then washed again using wash buffer. Finally, TMB was added to develop the ELISA; TMB conversion by HRP was stopped using 1M H-Cl.

Measured: binding

B1: anti-PD-L1 antibody H12 in IgG1 format (antibody, V domains shown)
VH: EVQLVQSGAEVKKPGASVKVSCKASGGTFSSYAISWVRQAPGQGLEWMGRIIPILGIANYAQKFQGRVTITADKSTSTAYMELSSLRSEDTAVYYCARSGHGYSYGAFDYWGQGTL
VL: QSVLTQPPSVSGAPGQRVTISCTGSSSNIGAGYDVHWYQQLPGTAPKLLIYGNSNRPSGVPDRFSGSKSGTSASLAITGLQAEDEADYYCQSYDSSLSGSYVVFGGGTKLTVL
notes: IgG1; also called H12 (IgG1); H12-IgG1
binds: biotinylated human PD-L1 [1] | [2] | [3] | [4] | [5] | biotinylated human PD-L1 [6]

B2: anti-PD-L1 antibody H12 (format not stated) (antibody, V domains shown)
VH: EVQLVQSGAEVKKPGASVKVSCKASGGTFSSYAISWVRQAPGQGLEWMGRIIPILGIANYAQKFQGRVTITADKSTSTAYMELSSLRSEDTAVYYCARSGHGYSYGAFDYWGQGTL
VL: QSVLTQPPSVSGAPGQRVTISCTGSSSNIGAGYDVHWYQQLPGTAPKLLIYGNSNRPSGVPDRFSGSKSGTSASLAITGLQAEDEADYYCQSYDSSLSGSYVVFGGGTKLTVL
not listed: biotinylated human PD-L1 [1] | [2] | [3] | [4] | [5] | biotinylated human PD-L1 [6]
binds: all other assays above

B3: anti-PD-L1 antibody H12 in IgG4 format (antibody, V domains shown)
VH: EVQLVQSGAEVKKPGASVKVSCKASGGTFSSYAISWVRQAPGQGLEWMGRIIPILGIANYAQKFQGRVTITADKSTSTAYMELSSLRSEDTAVYYCARSGHGYSYGAFDYWGQGTL
VL: QSVLTQPPSVSGAPGQRVTISCTGSSSNIGAGYDVHWYQQLPGTAPKLLIYGNSNRPSGVPDRFSGSKSGTSASLAITGLQAEDEADYYCQSYDSSLSGSYVVFGGGTKLTVL
notes: IgG4; also called H12-IgG4
binds: [3]

B4: anti-PD-L1 antibody C4 (format not stated) (antibody, V domains shown)
VH: QVQLQQSGAEVKKPGSSVKVSCKASGGTFSSYAISWVRQAPGQGLEWMGRIIPILGIANYAQKFQGRVTITADKSTSTAYMELSSLRSEDTAVYYCARGGYGGNSLYAFDIWGQGTMVTVSS
VL: QSVVTQPPSVSAAPGQKVTISCSGSSSNIGNNYVSWYQQLPGTAPKLLIYDNNERLSGIPDRFSGSKSGTSATLGISGLQTGDEADYYCGTWDSSLSVVVFGGGTKLTVL
binds: [10]
